{"source": "patent US7692004B2", "about": "“Use of metal complex compounds as oxidation catalysts” (Ciba Specialty Chemicals Corporation, priority 2001, dated 2010)", "key": {"[1]": {"assay": "Decomposition of hydrogen peroxide (iodometric)", "settings": "1:1 manganese complex with ligand 7.3 μM, initial H2O2 1.1 mM", "experimental": "(§1) A tea-stained cup is filled with 100 ml of a buffer solution (10 mM carbonate, pH=10.0) containing 1.1 mM of hydrogen peroxide and 7.3 μM of 1:1 manganese complex (prepared as described in Application Example 2). Using a thermostat, the temperature of the solution is raised from 23° to 53° C. over a period of 12 minutes and maintained at the final temperature for 23 minutes. After rinsing and drying in air, the results are evaluated visually on a scale of 1 (no cleaning) to 10 (clean). The catalyst-free system is used as reference.\nThe procedure is as in Application Example 3 but the consumption of H2O2 is determined iodometrically."}, "[2]": {"assay": "Stability of the Mn complexes (optical density by UV/VIS)", "type": "physicochemical", "settings": "335 nm; solution of the unsubstituted terpyridine ligand, without hydrogen peroxide; borax buffer pH 10.0"}, "[3]": {"assay": "Cleaning performance on soiled surfaces at 53° C.", "experimental": "as §1"}}, "note": "At least one compound was matched to its structure with a doubt left."}
{"smiles": "c1ccc(-c2cccc(-c3ccccn3)n2)nc1", "note": "[Unsubstituted terpyridine, terpyridine, reference compound]", "values": [{"measurement": "Residual H2O2", "setting": "[1]; procedure of Application Example 3", "value": 0.02, "unit": "mM"}, {"measurement": "Consumption", "setting": "[1]; H2O2 consumption", "value": 98, "unit": "%"}, {"measurement": "Optical density", "setting": "[2]", "value": "0.03 (335 nm)"}, {"measurement": "Difference (rating minus rating of reference)", "setting": "[3]; 1:1 manganese complex 7.3 μM, 53° C., reference = catalyst-free system", "value": "−0.1"}, {"measurement": "Rating", "setting": "[3]; 1:1 manganese complex with ligand 7.3 μM, H2O2 1.1 mM, pH 10.0, 23° to 53° C., visual scale 1 (no cleaning) to 10 (clean)", "value": "3.8 (3.9)"}]}
